Source: PubChem BioAssay AID1259308 (NCATS, 2017)
Here is one part, drawn at random, of about 59,000 reagents tested. About 1,510 of them (2.6%) were called active. 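Calls use total luciferase alone and ignore viability, so some active siRNAs may act by altering cell number.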 The numbers tell different reagents against one gene apart. Further read-outs or replicates are left out here. No sequences are given here.

Aim: 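Candidate targets for better recombinant protein yield in mammalian cells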 (primary screen)
System: human HEK293 embryonic kidney cells stably expressing firefly luciferase (HEK-CMV-Luc2-Hygro)
Reagents: single siRNA against human genes, 0.8 pmol siRNA per well
Duration: 72 h
Measured: 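Reporter luminescence and viable-cell signal on separate replicate plates, given as percent of non-targeting control and median/MAD z-scores, plus per-cell luciferase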
Direction: total luciferase, z-score and total luciferase, % of control: higher = more reporter protein produced
Hit rule: 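Active when the median/MAD z-score for overall luciferase is greater than 3; a gene was taken forward for validation with new siRNAs if at least two of its three siRNAs passed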
Calls: active = raised luciferase; inactive = no rise

{"target": "KIN", "reagent": 1, "total luciferase, z-score": -2.12, "total luciferase, % of control": 39.8, "call": "inactive"}
{"target": "KIN", "reagent": 2, "total luciferase, z-score": 0.329, "total luciferase, % of control": 88.4, "call": "inactive"}
{"target": "KIN", "reagent": 3, "total luciferase, z-score": 0.223, "total luciferase, % of control": 86.3, "call": "inactive"}
{"target": "RPS27L", "reagent": 1, "total luciferase, z-score": -0.564, "total luciferase, % of control": 70.7, "call": "inactive"}
{"target": "RPS27L", "reagent": 2, "total luciferase, z-score": 0.399, "total luciferase, % of control": 89.8, "call": "inactive"}
{"target": "RPS27L", "reagent": 3, "total luciferase, z-score": 0.474, "total luciferase, % of control": 91.3, "call": "inactive"}
{"target": "AFAP1", "reagent": 1, "total luciferase, z-score": 0.1, "total luciferase, % of control": 83.9, "call": "inactive"}
{"target": "AFAP1", "reagent": 2, "total luciferase, z-score": -0.247, "total luciferase, % of control": 77, "call": "inactive"}
{"target": "AFAP1", "reagent": 3, "total luciferase, z-score": -0.804, "total luciferase, % of control": 65.9, "call": "inactive"}
{"target": "SLC25A32", "reagent": 1, "total luciferase, z-score": 0.434, "total luciferase, % of control": 90.5, "call": "inactive"}
{"target": "SLC25A32", "reagent": 2, "total luciferase, z-score": -0.824, "total luciferase, % of control": 65.5, "call": "inactive"}
{"target": "SLC25A32", "reagent": 3, "total luciferase, z-score": 1.58, "total luciferase, % of control": 113, "call": "inactive"}

In a second layout: 2 of the entries above
{"target":"KIN","reagent":1,"total luciferase, z-score":-2.12,"total luciferase, % of control":39.8,"call":"inactive"}
{"target":"KIN","reagent":2,"total luciferase, z-score":0.329,"total luciferase, % of control":88.4,"call":"inactive"}
